Patent US20250311759A1, “ORGANIC COMPOUNDS” (GIVAUDAN SA, priority 2022, published 2025)

Tested on: sensory panel
Assay: Taste in water by a sensory panel
Type: in vivo

Structure (SMILES)	taste in water (50 ppm in water)	taste in water (100 ppm in water)	taste in water (1000 ppm in water)	taste in water (up to a concentration level of 40 ppm in water)	taste in water (30 ppm in water)	taste in water (90 ppm in water)	taste in water (70 ppm in water)
c1c[nH]cn1 [1H-imidazole]	subtle salty taste	weak salty taste along with some astringency and acidity	weak salty taste, but there is mainly a bitter taste	no effect	–	–	–
O=C(O)Cc1c[nH]cn1 [2-(1H-imidazol-4-yl)acetic acid]	–	–	–	–	subtle salty and mineral taste	weak salty, mineralic taste with a slightly sour note	–
c1ccc2[nH]cnc2c1 [benzimidazole]	–	–	–	–	subtle salty and sour taste	–	weak salty taste along with some sour background
